Experimental data published in patent publication US12378201B2, “Histone demethylase inhibitors for treating cancers” (The Board of Regents of the University of Texas System, priority 2019, dated 2025).
At least one compound was matched to its structure with a doubt left.

System: LNCaP and 22rv1 cell lines
Experiment: SAR statements on LNCaP and 22rv1 cell lines
Format: cell-based
Conditions: LNCaP 1 μM, 22rv1 0.5 μM
Procedure: All compounds were evaluated for their effects on LNCaP and 22rv1 cell lines at 1 and 0.5 μM concentrations, respectively. […] For this purpose different analogues of B-3 with chain length varying from 0 to 4 carbon were synthesized (Table 1). […] In view of the availability of a variety of commercially available benzyl amines over phenyl propyl amines and method to functionalize analogues with 1C chain compound 14c was selected for further modification.

SMILES	activity on cell lines, in words (SAR)
O=C(O)c1ccc(CNC(=O)c2cccc(-c3cc(O)c4ncccc4c3)c2)cc1 [Compound 17a]	lower activity than B-3
COC(=O)c1ccc(CNC(=O)c2cccc(-c3cc(O)c4ncccc4c3)c2)cc1 [Compound 17c]	greatly increased the potency
